# Measurements taken from the supplement of paper PMC12067093, “Discovery and optimisation of a covalent ligand for TRIM25 and its application to targeted protein ubiquitination” (Chemical Science, 2025).
# The chains behind the UniProt entries cited, without tags or fusion partners. Where a name states a change or a piece, a line headed by the entry shows the natural chain unless it says otherwise.
# UniProt Q92973: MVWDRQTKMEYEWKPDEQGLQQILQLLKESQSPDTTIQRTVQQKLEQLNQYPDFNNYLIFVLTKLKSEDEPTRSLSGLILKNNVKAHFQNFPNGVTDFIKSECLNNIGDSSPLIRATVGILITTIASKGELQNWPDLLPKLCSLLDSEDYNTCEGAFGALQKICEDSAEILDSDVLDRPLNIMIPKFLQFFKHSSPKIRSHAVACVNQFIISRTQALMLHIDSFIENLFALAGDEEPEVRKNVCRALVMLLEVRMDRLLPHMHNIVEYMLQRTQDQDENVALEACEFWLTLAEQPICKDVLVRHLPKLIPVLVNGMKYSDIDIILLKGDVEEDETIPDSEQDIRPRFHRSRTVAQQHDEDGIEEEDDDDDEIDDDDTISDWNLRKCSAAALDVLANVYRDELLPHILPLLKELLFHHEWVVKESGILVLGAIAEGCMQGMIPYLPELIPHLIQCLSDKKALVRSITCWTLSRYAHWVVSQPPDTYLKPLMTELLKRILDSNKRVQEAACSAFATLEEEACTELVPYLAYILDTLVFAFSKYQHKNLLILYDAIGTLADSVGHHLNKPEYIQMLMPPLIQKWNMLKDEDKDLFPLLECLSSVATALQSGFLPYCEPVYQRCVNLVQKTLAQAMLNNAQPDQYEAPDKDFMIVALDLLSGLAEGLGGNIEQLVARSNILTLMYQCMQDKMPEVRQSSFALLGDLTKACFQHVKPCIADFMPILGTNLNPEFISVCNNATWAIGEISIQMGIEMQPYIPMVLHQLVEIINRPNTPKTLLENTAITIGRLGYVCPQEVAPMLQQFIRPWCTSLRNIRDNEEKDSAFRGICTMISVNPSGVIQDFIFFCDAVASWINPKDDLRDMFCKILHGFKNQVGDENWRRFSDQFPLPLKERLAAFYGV
# UniProt P57088: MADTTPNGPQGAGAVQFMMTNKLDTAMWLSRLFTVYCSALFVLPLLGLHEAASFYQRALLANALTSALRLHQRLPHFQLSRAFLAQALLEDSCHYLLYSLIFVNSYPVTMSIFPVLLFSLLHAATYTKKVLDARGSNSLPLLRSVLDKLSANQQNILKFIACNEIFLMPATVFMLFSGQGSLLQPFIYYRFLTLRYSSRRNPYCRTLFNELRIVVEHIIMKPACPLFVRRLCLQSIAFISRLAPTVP
# UniProt Q9Y5L0: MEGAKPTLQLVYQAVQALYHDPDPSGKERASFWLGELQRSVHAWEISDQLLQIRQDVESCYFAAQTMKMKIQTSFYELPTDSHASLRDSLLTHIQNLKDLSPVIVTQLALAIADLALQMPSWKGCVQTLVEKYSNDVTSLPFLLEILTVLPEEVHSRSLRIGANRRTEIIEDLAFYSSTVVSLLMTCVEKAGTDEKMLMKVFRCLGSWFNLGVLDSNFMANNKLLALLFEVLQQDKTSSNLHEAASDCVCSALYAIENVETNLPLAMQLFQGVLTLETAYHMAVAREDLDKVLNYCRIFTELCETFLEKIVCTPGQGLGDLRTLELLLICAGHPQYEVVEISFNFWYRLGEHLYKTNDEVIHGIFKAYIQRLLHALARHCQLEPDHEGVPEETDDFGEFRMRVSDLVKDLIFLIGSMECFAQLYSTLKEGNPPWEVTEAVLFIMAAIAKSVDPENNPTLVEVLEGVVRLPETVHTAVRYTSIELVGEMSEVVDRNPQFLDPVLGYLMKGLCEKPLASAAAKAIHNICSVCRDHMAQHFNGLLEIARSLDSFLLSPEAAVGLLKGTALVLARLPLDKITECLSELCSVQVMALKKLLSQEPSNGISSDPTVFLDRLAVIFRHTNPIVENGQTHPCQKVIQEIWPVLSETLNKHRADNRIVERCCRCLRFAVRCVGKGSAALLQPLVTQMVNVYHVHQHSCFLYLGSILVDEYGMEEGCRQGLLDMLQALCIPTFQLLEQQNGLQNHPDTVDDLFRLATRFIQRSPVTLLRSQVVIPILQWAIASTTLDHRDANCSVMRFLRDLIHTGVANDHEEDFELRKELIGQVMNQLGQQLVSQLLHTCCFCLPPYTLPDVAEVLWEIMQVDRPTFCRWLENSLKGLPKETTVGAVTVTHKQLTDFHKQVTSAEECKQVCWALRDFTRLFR
# UniProt Q9NQ34: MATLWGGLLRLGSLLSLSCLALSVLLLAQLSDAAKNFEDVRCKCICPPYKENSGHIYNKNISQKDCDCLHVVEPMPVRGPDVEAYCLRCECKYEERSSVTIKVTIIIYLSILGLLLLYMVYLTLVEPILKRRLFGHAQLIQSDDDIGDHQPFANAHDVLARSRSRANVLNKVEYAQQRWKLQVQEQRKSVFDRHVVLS
# UniProt Q9BXJ8: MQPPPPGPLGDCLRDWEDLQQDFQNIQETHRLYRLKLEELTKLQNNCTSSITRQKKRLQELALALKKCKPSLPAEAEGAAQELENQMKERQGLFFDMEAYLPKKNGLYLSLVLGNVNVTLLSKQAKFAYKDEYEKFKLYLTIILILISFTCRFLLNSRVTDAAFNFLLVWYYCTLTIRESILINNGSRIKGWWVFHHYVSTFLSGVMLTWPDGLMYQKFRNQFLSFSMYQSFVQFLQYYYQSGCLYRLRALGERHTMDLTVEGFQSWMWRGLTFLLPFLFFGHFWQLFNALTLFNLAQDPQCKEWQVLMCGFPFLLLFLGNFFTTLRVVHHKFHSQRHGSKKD
# UniProt Q9Y4G6: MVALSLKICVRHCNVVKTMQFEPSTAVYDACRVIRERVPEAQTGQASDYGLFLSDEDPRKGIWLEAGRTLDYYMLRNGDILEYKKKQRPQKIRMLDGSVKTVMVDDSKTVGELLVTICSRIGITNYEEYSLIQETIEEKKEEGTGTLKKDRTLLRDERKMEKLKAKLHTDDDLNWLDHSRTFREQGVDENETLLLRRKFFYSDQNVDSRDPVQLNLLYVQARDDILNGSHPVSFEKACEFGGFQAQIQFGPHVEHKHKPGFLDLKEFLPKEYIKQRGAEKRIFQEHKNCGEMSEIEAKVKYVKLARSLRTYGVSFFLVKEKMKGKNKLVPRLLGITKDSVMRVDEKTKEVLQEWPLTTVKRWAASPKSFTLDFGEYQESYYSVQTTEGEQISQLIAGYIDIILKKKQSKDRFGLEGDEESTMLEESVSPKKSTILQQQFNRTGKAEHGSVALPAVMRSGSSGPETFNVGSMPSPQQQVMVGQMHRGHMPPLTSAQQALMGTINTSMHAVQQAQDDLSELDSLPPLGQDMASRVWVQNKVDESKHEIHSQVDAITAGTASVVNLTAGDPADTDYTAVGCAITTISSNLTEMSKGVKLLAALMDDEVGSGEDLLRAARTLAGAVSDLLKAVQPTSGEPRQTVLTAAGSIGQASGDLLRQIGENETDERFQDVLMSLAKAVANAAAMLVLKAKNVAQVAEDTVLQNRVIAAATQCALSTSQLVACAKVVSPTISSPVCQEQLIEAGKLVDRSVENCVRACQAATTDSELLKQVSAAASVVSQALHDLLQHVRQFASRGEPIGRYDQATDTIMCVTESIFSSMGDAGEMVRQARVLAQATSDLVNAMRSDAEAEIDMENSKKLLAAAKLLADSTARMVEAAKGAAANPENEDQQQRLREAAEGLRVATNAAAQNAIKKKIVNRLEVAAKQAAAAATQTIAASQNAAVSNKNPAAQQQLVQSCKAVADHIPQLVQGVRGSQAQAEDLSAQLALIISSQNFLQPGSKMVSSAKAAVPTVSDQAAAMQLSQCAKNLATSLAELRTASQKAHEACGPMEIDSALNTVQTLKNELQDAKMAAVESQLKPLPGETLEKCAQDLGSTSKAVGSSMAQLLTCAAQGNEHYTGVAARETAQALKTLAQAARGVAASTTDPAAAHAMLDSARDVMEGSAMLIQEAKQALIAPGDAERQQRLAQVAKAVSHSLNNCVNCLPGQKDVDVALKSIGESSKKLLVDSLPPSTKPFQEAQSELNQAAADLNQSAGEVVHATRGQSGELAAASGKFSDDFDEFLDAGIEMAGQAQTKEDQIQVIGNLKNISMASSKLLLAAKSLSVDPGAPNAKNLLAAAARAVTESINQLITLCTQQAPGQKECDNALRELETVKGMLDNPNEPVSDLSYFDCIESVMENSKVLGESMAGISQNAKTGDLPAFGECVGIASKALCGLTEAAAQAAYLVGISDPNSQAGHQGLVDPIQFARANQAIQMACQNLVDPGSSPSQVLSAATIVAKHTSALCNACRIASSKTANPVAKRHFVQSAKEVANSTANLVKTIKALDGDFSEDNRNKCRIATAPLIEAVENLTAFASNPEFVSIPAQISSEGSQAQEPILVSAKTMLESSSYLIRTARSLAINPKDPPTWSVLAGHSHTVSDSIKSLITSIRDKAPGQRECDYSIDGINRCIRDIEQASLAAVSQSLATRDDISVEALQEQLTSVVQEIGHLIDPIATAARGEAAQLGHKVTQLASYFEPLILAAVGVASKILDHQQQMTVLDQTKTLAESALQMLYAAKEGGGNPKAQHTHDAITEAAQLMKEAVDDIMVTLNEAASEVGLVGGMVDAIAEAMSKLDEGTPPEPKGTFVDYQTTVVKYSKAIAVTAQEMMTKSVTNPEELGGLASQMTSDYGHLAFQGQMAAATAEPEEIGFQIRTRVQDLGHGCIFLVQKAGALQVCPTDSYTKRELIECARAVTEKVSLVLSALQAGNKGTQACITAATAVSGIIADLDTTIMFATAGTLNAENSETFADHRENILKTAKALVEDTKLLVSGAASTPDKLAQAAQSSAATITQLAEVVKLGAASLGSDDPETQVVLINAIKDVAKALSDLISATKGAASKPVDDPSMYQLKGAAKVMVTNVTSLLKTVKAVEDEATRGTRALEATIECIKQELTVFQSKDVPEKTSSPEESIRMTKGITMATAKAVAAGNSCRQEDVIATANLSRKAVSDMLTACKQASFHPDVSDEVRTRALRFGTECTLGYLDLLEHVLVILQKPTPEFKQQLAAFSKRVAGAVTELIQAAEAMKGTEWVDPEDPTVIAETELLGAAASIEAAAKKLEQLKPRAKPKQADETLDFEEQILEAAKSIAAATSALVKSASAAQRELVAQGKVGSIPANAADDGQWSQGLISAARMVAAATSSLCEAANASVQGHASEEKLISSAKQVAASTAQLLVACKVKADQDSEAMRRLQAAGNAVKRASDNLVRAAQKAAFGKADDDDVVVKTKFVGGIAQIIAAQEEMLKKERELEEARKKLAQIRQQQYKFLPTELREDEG
# UniProt Q9H3S4: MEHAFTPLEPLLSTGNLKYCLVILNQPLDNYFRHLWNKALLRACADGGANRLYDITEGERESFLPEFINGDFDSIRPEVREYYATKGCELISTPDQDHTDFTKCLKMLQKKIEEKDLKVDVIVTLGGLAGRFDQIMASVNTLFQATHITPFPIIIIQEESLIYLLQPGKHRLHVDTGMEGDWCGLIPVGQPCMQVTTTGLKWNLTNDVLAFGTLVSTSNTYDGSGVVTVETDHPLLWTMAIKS
# UniProt P11387: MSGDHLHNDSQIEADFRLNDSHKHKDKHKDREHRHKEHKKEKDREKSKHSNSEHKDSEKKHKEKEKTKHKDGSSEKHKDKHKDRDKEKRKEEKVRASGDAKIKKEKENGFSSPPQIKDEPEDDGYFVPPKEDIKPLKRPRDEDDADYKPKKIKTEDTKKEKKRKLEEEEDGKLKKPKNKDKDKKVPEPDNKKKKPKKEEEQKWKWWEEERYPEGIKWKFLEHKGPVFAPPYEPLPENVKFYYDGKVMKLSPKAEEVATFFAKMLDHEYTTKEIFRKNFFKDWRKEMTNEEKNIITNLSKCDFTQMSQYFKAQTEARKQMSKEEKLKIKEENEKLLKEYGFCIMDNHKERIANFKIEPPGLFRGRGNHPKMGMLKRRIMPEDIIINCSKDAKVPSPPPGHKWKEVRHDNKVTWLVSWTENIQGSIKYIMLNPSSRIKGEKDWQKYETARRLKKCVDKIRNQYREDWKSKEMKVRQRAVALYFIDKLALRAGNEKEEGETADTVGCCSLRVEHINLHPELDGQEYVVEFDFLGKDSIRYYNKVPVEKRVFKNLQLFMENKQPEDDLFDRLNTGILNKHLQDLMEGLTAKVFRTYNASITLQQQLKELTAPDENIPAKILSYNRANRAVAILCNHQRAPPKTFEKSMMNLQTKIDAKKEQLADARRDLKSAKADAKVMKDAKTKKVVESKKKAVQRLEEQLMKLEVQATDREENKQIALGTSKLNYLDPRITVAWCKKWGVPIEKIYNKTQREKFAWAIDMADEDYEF
# UniProt Q9NV96: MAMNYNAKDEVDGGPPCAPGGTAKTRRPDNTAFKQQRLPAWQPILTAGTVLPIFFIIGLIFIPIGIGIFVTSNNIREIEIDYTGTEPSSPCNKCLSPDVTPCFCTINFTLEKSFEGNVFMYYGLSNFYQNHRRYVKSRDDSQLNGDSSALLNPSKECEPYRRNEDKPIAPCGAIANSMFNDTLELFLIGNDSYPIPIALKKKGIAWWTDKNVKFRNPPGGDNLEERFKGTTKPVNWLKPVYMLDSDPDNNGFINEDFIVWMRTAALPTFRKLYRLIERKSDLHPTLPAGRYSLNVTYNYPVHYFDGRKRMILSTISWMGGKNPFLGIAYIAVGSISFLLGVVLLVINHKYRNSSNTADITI
# Some of the results follow.
# Compound: Cc1cc(ccc1-c1ccccc1)C(=O)N1CCCN(CC1)C(=O)CCl [compound 10]
# Assay: probe-labelled cysteine peptide fold change vs DMSO (competition) (log2 fold change); higher = less target engagement (more negative = stronger competition)
# Details: THP-1, incubation time: 4 h
# 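Further: competitive profiling in live THP-1 cells: cysteine peptides tagged with an iodoacetamide desthiobiotin (IA-DTB) probe, intensity after compound treatment relative to DMSO-treated cells.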
target,measurement,setting,value
TNFAIP8L1_Q8WVP5_153_INHVFGHLADCDFLAALYGPAEPYR (UniProt Q8WVP5),probe-labelled cysteine peptide fold change,10 µM,-0.194
same,probe-labelled cysteine peptide fold change,50 µM,-0.087
TNS3_Q68CZ2_512_DRETDILDDEMPHHDLHSVDSLGTLSSSEGPQSAHLGPFTCHK (UniProt Q68CZ2),probe-labelled cysteine peptide fold change,10 µM,-0.555
same,probe-labelled cysteine peptide fold change,50 µM,-1.66
TMEM209_Q96SK2_295_KFQYQLACR (UniProt Q96SK2),probe-labelled cysteine peptide fold change,10 µM,-0.269
same,probe-labelled cysteine peptide fold change,50 µM,-0.587
TPP1_O14773_111+122_CHSVITQDFLTCWLSIR (UniProt O14773),probe-labelled cysteine peptide fold change,10 µM,-0.17
same,probe-labelled cysteine peptide fold change,50 µM,0.398
TNPO1_Q92973_153_LCSLLDSEDYNTCEGAFGALQK (UniProt Q92973),probe-labelled cysteine peptide fold change,10 µM,-0.308
same,probe-labelled cysteine peptide fold change,50 µM,-0.15
TMEM33_P57088_224_IVVEHIIMKPACPLFVR (UniProt P57088),probe-labelled cysteine peptide fold change,10 µM,-0.228
same,probe-labelled cysteine peptide fold change,50 µM,-0.262
TMEM33_P57088_232_LCLQSIAFISR (UniProt P57088),probe-labelled cysteine peptide fold change,10 µM,-0.119
same,probe-labelled cysteine peptide fold change,50 µM,0.551
TNPO3_Q9Y5L0_793_DANCSVMR (UniProt Q9Y5L0),probe-labelled cysteine peptide fold change,10 µM,-0.107
same,probe-labelled cysteine peptide fold change,50 µM,-0.114
TMCO6_Q96DC7_57_NDAPEEAGEGCVAAILGETEVQQFLR (UniProt Q96DC7),probe-labelled cysteine peptide fold change,10 µM,-0.114
same,probe-labelled cysteine peptide fold change,50 µM,-0.233
TMED4_Q7Z7H5_41_RCFIEEIPDETMVIGNYR (UniProt Q7Z7H5),probe-labelled cysteine peptide fold change,10 µM,-0.152
same,probe-labelled cysteine peptide fold change,50 µM,0.0268
TNPO2_O14787_805_LGYVCPQEVAPMLQQFIRPWCTSLR (UniProt O14787),probe-labelled cysteine peptide fold change,10 µM,0.0391
same,probe-labelled cysteine peptide fold change,50 µM,0.394
TOR1A_O14656_50_LYCLFAECCGQK (UniProt O14656),probe-labelled cysteine peptide fold change,10 µM,-0.104
same,probe-labelled cysteine peptide fold change,50 µM,0.242
TMED5_Q9Y3A6_107_KSDGVHTVETEVGDYMFCFDNTFSTISEK (UniProt Q9Y3A6),probe-labelled cysteine peptide fold change,10 µM,-0.129
same,probe-labelled cysteine peptide fold change,50 µM,0.0364
TOP2A_P11388_392_SFGSTCQLSEK (UniProt P11388),probe-labelled cysteine peptide fold change,10 µM,-0.0489
same,probe-labelled cysteine peptide fold change,50 µM,-0.0273
TMF1_P82094_518_VQLACK (UniProt P82094),probe-labelled cysteine peptide fold change,10 µM,-0.035
same,probe-labelled cysteine peptide fold change,50 µM,0.0261
TOP2B_Q02880_387_NHIWVFINCLIENPTFDSQTK (UniProt Q02880),probe-labelled cysteine peptide fold change,10 µM,0.0327
same,probe-labelled cysteine peptide fold change,50 µM,0.24
TMX2_Q9Y320_46_KLPPLCHGLPTQR (UniProt Q9Y320),probe-labelled cysteine peptide fold change,10 µM,-0.165
same,probe-labelled cysteine peptide fold change,50 µM,0.206
TMEM9B_Q9NQ34_86_GPDVEAYCLR (UniProt Q9NQ34),probe-labelled cysteine peptide fold change,10 µM,0.155
same,probe-labelled cysteine peptide fold change,50 µM,0.228
TMEM120A_Q9BXJ8_47_LQNNCTSSITR (UniProt Q9BXJ8),probe-labelled cysteine peptide fold change,10 µM,-0.176
same,probe-labelled cysteine peptide fold change,50 µM,-0.0504
TMEM260_Q9NX78_647_NYAIACER (UniProt Q9NX78),probe-labelled cysteine peptide fold change,10 µM,0.0142
same,probe-labelled cysteine peptide fold change,50 µM,0.269
TPI1_P60174_255_IIYGGSVTGATCK (UniProt P60174),probe-labelled cysteine peptide fold change,10 µM,-0.249
same,probe-labelled cysteine peptide fold change,50 µM,-0.0587
TNPO1_Q92973_862_DDLRDMFCK (UniProt Q92973),probe-labelled cysteine peptide fold change,10 µM,-0.311
same,probe-labelled cysteine peptide fold change,50 µM,-0.192
TMEM9B_Q9NQ34_66+68_DCDCLHVVEPMPVR (UniProt Q9NQ34),probe-labelled cysteine peptide fold change,10 µM,-0.0137
same,probe-labelled cysteine peptide fold change,50 µM,-0.0293
TLN1_Q9Y490_243_ACEFAGFQCQIQFGPHNEQK (UniProt Q9Y490),probe-labelled cysteine peptide fold change,10 µM,0.0189
same,probe-labelled cysteine peptide fold change,50 µM,0.0445
TNPO3_Q9Y5L0_303_IFTELCETFLEK (UniProt Q9Y5L0),probe-labelled cysteine peptide fold change,10 µM,0.35
same,probe-labelled cysteine peptide fold change,50 µM,0.295
TLN2_Q9Y4G6_1663_ECDYSIDGINR (UniProt Q9Y4G6),probe-labelled cysteine peptide fold change,10 µM,0.206
same,probe-labelled cysteine peptide fold change,50 µM,0.382
TMEM94_Q12767_459_SFCHPEPHER (UniProt Q12767),probe-labelled cysteine peptide fold change,10 µM,-0.153
same,probe-labelled cysteine peptide fold change,50 µM,-0.213
TOPBP1_Q92547_1284_IDYCHLIEK (UniProt Q92547),probe-labelled cysteine peptide fold change,10 µM,0.108
same,probe-labelled cysteine peptide fold change,50 µM,-0.108
TPK1_Q9H3S4_88_GCELISTPDQDHTDFTK (UniProt Q9H3S4),probe-labelled cysteine peptide fold change,10 µM,-0.266
same,probe-labelled cysteine peptide fold change,50 µM,-0.086
TLN2_Q9Y4G6_289_NCGEMSEIEAK (UniProt Q9Y4G6),probe-labelled cysteine peptide fold change,10 µM,-0.0796
same,probe-labelled cysteine peptide fold change,50 µM,0.0596
TNRC18_O15417_475_ELLKPEADPRPCER (UniProt O15417),probe-labelled cysteine peptide fold change,10 µM,-0.0425
same,probe-labelled cysteine peptide fold change,50 µM,-0.0152
TMEM173_Q86WV6_206_LYILLPLDCGVPDNLSMADPNIR (UniProt Q86WV6),probe-labelled cysteine peptide fold change,10 µM,-0.113
same,probe-labelled cysteine peptide fold change,50 µM,-0.142
TOP1_P11387_504_AGNEKEEGETADTVGCCSLR (UniProt P11387),probe-labelled cysteine peptide fold change,10 µM,-0.0614
same,probe-labelled cysteine peptide fold change,50 µM,-1.22
TMEM30A_Q9NV96_17_DEVDGGPPCAPGGTAK (UniProt Q9NV96),probe-labelled cysteine peptide fold change,10 µM,-0.226
same,probe-labelled cysteine peptide fold change,50 µM,-0.00113
TMED8_Q6PL24_161_VSPPLMAPPCIWTFAK (UniProt Q6PL24),probe-labelled cysteine peptide fold change,10 µM,-0.102
same,probe-labelled cysteine peptide fold change,50 µM,-0.298
TLN2_Q9Y4G6_1047_AHEACGPMEIDSALNTVQTLK (UniProt Q9Y4G6),probe-labelled cysteine peptide fold change,10 µM,0.0762
same,probe-labelled cysteine peptide fold change,50 µM,0.000317
TMEM30A_Q9NV96_91_EIEIDYTGTEPSSPCNK (UniProt Q9NV96),probe-labelled cysteine peptide fold change,10 µM,-0.0121
same,probe-labelled cysteine peptide fold change,50 µM,0.0439
TLN2_Q9Y4G6_2153_ALEATIECIK (UniProt Q9Y4G6),probe-labelled cysteine peptide fold change,10 µM,-0.157
same,probe-labelled cysteine peptide fold change,50 µM,-0.0725
TM9SF2_Q99805_250_HTHIDKPDCSGPPMDISNK (UniProt Q99805),probe-labelled cysteine peptide fold change,10 µM,-0.0993
same,probe-labelled cysteine peptide fold change,50 µM,-0.152
TOMM70_O94826_136_YEQAIQCYTEAISLCPTEK (UniProt O94826),probe-labelled cysteine peptide fold change,10 µM,0.253
same,probe-labelled cysteine peptide fold change,50 µM,0.311
TMA16_Q96EY4_162_KICANDAIPK (UniProt Q96EY4),probe-labelled cysteine peptide fold change,10 µM,-0.041
same,probe-labelled cysteine peptide fold change,50 µM,-0.333
TOR2A_Q5JU69_35+43_CTLGAFCECDFRPDLPGLECDLAQHLAGQHLAK (UniProt Q5JU69),probe-labelled cysteine peptide fold change,10 µM,-0.21
same,probe-labelled cysteine peptide fold change,50 µM,0.239
